Data reported in publication PMC5900714.
These are yes or no findings as the source states them, for the method shown. In cells and extracts the contact can be indirect. Some binding calls cover weakened binding; strength is not graded here. For some of these results: Sequences can lack the tags named with a protein. One block for each molecule: values may come before it.

Sequences of proteins named here, by UniProt entry; tags and fusion partners are left off.
UniProt Q9VCE6: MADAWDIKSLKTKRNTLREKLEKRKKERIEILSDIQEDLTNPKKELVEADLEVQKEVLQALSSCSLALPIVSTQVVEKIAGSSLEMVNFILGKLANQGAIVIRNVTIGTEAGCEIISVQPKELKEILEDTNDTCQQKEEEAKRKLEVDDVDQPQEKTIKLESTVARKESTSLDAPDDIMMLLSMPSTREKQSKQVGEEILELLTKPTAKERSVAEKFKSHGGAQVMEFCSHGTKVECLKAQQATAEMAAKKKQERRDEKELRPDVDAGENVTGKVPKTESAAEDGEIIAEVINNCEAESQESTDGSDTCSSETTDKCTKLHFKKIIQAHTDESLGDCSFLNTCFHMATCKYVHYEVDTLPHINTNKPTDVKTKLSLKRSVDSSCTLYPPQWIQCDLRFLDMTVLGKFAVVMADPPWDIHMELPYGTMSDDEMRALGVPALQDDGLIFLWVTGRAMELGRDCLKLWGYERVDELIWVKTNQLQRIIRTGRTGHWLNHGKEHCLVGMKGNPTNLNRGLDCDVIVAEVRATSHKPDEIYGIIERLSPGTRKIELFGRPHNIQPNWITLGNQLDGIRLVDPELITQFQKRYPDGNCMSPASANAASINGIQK
UniProt Q9W1R5: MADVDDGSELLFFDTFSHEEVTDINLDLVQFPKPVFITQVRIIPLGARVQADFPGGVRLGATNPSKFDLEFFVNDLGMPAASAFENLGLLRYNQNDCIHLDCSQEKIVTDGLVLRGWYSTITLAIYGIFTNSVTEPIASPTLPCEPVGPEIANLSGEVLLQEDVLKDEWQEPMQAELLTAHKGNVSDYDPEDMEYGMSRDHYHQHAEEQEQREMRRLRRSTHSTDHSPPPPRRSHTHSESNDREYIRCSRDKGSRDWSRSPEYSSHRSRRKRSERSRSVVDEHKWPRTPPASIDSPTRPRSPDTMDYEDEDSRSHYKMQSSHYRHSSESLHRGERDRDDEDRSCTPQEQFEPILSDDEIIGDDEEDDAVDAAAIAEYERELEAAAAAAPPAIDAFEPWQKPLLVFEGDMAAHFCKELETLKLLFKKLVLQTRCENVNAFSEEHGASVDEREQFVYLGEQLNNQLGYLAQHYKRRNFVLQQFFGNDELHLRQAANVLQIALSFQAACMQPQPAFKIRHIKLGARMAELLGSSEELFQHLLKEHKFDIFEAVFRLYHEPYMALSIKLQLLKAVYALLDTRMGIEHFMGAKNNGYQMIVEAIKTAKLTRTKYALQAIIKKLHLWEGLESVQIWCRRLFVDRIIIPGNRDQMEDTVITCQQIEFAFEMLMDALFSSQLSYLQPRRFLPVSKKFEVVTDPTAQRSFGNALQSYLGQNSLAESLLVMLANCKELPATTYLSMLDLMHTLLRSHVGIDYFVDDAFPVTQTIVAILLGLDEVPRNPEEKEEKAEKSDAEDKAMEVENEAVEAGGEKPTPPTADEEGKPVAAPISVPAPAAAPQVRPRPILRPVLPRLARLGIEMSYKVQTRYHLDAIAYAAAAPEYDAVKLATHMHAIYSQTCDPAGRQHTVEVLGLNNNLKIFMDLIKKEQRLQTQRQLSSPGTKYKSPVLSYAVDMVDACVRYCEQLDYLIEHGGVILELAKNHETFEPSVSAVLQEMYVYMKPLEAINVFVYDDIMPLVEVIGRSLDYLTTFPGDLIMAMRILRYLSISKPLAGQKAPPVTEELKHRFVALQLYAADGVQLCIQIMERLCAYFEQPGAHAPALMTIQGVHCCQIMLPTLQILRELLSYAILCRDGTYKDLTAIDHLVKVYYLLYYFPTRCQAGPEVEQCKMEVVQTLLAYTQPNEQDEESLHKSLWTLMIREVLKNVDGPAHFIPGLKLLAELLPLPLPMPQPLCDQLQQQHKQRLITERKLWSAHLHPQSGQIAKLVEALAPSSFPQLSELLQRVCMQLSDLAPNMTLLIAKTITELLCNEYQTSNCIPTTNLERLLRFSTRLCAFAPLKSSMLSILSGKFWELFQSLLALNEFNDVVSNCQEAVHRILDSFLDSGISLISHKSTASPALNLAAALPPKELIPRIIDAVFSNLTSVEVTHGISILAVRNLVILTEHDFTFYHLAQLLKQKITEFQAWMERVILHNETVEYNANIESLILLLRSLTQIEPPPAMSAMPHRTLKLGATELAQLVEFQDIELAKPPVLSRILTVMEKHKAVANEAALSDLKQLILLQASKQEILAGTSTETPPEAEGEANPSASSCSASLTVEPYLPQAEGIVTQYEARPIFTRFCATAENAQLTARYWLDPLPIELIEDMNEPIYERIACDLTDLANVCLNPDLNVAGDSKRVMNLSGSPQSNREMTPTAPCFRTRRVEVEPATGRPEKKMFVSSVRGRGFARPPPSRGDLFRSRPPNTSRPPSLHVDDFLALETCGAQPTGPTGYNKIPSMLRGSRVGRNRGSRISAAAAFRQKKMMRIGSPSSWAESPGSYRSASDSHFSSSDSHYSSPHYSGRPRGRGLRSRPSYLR

Legend:
[1] = molecular target: T1, Nito, as used in the interaction tests of Supplemental Fig. S8 (D. melanogaster) (UniProt Q7KMJ6); experiment: co-IP; interactions between m6A writers in S2R+ cells, control and Flacc knock-down; details only in Supplemental Fig. S8 and its legend (not shown); method taken from the paper's co-immunoprecipitation methods
T1 sequence: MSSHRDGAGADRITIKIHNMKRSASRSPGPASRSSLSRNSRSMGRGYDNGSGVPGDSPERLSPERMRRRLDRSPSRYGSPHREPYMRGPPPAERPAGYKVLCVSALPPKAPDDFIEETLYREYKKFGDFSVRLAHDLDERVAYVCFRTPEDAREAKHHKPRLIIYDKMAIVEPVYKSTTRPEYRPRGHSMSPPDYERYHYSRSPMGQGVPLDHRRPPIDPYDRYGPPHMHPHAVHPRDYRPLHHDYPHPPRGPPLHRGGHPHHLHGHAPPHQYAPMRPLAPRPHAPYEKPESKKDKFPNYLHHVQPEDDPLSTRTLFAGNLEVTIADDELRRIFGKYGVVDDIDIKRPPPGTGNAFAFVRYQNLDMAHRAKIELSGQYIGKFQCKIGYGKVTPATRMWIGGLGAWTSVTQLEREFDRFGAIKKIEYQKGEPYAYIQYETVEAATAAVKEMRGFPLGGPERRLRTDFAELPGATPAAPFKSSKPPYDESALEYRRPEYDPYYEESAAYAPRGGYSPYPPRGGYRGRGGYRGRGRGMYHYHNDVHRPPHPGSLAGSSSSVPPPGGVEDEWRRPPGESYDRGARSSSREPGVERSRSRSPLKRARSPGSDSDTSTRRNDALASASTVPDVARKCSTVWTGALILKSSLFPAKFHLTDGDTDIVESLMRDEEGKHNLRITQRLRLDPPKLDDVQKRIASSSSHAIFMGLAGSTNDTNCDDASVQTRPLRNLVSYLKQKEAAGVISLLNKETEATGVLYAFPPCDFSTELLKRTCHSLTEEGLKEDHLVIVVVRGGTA

[2] = molecular target: T2, Flacc-Myc (D. melanogaster) (UniProt Q9VWN4); experiment: co-IP; S2R+ cells co-transfected, lysate (50 mM Tris-HCl pH 7.4, 150 mM NaCl, 0.05% NP-40), anti-Myc antibody on protein G beads, Western blot; repeated with RNase T1 where told; control knock-down condition
T2 sequence: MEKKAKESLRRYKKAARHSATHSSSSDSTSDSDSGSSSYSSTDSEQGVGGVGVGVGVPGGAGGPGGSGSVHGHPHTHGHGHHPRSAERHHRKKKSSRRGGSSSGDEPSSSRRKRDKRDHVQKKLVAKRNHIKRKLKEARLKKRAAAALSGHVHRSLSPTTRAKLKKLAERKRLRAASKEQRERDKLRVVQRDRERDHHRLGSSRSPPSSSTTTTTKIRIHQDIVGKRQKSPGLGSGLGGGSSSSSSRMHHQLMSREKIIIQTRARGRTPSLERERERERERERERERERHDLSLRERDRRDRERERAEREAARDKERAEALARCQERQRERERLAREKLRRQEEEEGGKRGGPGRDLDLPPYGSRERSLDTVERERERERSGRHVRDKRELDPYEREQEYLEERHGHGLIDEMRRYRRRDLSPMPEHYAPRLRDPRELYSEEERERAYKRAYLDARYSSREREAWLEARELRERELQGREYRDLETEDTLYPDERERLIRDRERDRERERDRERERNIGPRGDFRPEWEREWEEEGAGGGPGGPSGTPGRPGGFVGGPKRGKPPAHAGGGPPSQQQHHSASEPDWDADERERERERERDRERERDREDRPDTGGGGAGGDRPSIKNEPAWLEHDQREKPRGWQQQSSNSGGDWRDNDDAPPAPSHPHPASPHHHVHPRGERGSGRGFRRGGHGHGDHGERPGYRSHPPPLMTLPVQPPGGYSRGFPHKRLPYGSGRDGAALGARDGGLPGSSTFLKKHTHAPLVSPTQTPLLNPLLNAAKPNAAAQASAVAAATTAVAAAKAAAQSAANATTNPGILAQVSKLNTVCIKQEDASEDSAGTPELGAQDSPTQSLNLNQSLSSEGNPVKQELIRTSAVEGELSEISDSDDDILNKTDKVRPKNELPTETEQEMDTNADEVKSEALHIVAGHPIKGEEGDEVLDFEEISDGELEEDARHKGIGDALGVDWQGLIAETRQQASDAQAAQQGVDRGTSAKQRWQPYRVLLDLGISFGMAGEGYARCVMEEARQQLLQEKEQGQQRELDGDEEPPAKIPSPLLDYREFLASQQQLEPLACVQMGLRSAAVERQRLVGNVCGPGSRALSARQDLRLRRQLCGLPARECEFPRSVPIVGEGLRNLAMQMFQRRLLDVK

[3] = molecular target: T3, FlagMyc-Flacc (D. melanogaster) (UniProt Q9VWN4); experiment: as above
T3 sequence: T2 sequence

[4] = molecular target: Mettl3 (Drosophila) (D. melanogaster) (UniProt Q9VCE6); experiment: co-IP; interactions between m6A writers in S2R+ cells, control and Flacc knock-down; details only in Supplemental Fig. S8 and its legend (not shown); method taken from the paper's co-immunoprecipitation methods

binding [1]: binds
binding [2]: binds
Molecule: Vir (Virilizer), as used in the co-immunoprecipitations of Supplemental Figs. S3 and S8 (from UniProt Q9W1R5 1-1854)

binding [4]: binds
binding [1]: binds
B2: Mettl14 (Drosophila) (protein, UniProt Q9VLP7 1-397)
chain: MSDVLKSSQERSRKRRLLLAQTLGLSSVDDLKKALGNAEDINSSRQLNSGGQREEEDGGASSSKKTPNEIIYRDSSTFLKGTQSSNPHNDYCQHFVDTGQRPQNFIRDVGLADRFEEYPKLRELIKLKDKLIQDTASAPMYLKADLKSLDVKTLGAKFDVILIEPPLEEYARAAPSVATVGGAPRVFWNWDDILNLDVGEIAAHRSFVFLWCGSSEGLDMGRNCLKKWGFRRCEDICWIRTNINKPGHSKQLEPKAVFQRTKEHCLMGIKGTVRRSTDGDFIHANVDIDLIISEEEEFGSFEKPIEIFHIIEHFCLGRRRLHLFGRDSSIRPGWLTVGPELTNSNFNSELYQTYFAEAPATGCTSRIELLRPKSPPPNSKVLRGRGRGFPRGRGRPR

More lines, now with the values behind:

Molecule: Mettl3 (Drosophila) (from UniProt Q9VCE6 1-608) (enzyme)
binding [1]: binds

B1: HA-Nito (protein, UniProt Q7KMJ6 1-793)
chain: T1 sequence
binding [3]: binds

B3: Fl(2)d, as detected in the Flacc-Myc immunoprecipitate (Supplemental Fig. S3) (protein, UniProt Q9Y091 1-536)
chain: MSVAAMTMDDQRPCMNSYDKMPPTKYEQNLNILNSSQNSGATGGPASPTPSGLEDHHHHHHPHPHHHHHQEQQQQQQQQQHLQQQQQQQQQQHAAAVAEAVAAAEQRQRLLEDEIENLKLEQVRMAQQCADAQRREKILMRRLANKEQEFQDYVSQIAEYKAQQAPTALALRTALLDPAVNLLFERLKKELKATKAKLEETQNELSAWKFTPDSNTGKRLMAKCRLLYQENEELGKMTSNGRLAKLETELAMQKSFSEEVKKSQSELDDFLQELDEDVEGMQSTILFLQQELKTTRDRIQTLEKENAQLKQAIKDEVVAPAAATNGGTNTTINKLETIHEDACMANNPTNPDCYNGNTNNEQIAAVPQIPLSDDGSNMNGNAARLARKRNYQEEEALPTVVVVPTPTPVGNNVQEAPPIREVTAPRTLPPKKSKLRGITTRRNSQLEEDHQPVTTPVAVPMIVDNAVAGMASEEAAAAAAAVNNSNTGIIPETGVQVGVPVEGGDPGAPAAPGRILTRRRSVRMQQNGSGAVDYST
binding [2]: binds
